From the RNAGym collection of RNA variant scans (doi:10.1126/science.aae0568)
This sample is rich in variants without activity.

B1: tRNA (parent)
chain: GUUCCGUUGGCGUAAUGGUAACGCGUCUCCCUCCUAAGGAGAAGACUGCGGGUUCGAGUCCCGUACGGAACG

Variants of: B1
Assay: yeast fitness relative to wild type (ratio to wild type); higher = fitter; tRNA-Arg(CCU), competitive growth, 37 C, YPD
In short: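 A pool of Saccharomyces cerevisiae strains, each with a tRNA-Arg(CCU) gene variant at the native genomic locus, was competed in YPD at 37°C for 24 hours across six parallel replicates. The variants had been chemically synthesised at a 3% per-site mutation rate over 69 sites, and gene amplicons before and after competition were read by 100-nucleotide paired-end sequencing. Darwinian fitness relative to wild type rested on changes in genotype frequencies. Genotypes required ≥ 100 starting reads, and estimates < 0.5 were set to 0.5.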

Row | Variant | yeast fitness
1 | A20G U32G A43C C55G C60U | ≤ 0.5
2 | G6C A21U A36C A57G | ≤ 0.5
3 | A36G G68C A70G | ≤ 0.5
4 | A14C C34U G39C C55U G56C | ≤ 0.5
5 | G10A C34G | ≤ 0.5
6 | C4U G17C A43U | ≤ 0.5
7 | C5G U13G C29U A40G U64A | ≤ 0.5
8 | A20C G52A A65G | ≤ 0.5
9 | G38C C62A G67C | ≤ 0.5
10 | C22A C27U G56A A57C | ≤ 0.5
11 | G6C C11A A40U G52C U53A A65C | ≤ 0.5
12 | C22U G38C A43C C61A | ≤ 0.5
13 | U3C C27U C62U | 0.617
14 | C24U G52C | 0.702
15 | C11G U28C U47C C60A G67A | ≤ 0.5
16 | G9C A14C A42G C60A | ≤ 0.5
17 | G6A U47A G68U | ≤ 0.5
18 | C5G A40C U47A C66U | ≤ 0.5
19 | U2C C5U A43U C49U | ≤ 0.5
20 | U28C U32C C33U G56A | ≤ 0.5
21 | C11A A14C C34A G58C | ≤ 0.5
22 | U3A U7A A15U C29G A45U C60G | ≤ 0.5
23 | C4G G17A A57U U59C | ≤ 0.5
24 | A21G C62G A65U | ≤ 0.5

Row | Variant | yeast fitness
25 | U8A U19G C24G U32A C49U | ≤ 0.5
26 | A20G C22U C24U G56A C66G | ≤ 0.5
27 | A21U G23A C49A | ≤ 0.5
28 | U3A C4G U8A C49G | ≤ 0.5
29 | U26A G68C A69G | 0.572
30 | G10A C49A G50A | ≤ 0.5
31 | A37U A45U | 0.64
32 | C11A A20G G56A | ≤ 0.5
33 | G6C C33G A70G | ≤ 0.5
34 | G12C C46A G68U | ≤ 0.5
35 | C4U C11G A45U A70C | ≤ 0.5
36 | G9A A36U G39A A69U | ≤ 0.5
37 | G12C G17C G39A | ≤ 0.5
38 | U2C U13A G39C | ≤ 0.5
39 | C11G A15C A37U G68C | ≤ 0.5
40 | U3C U47A U53C | ≤ 0.5
41 | C11G U54C | 0.512
42 | G9A C22A U53A A57G G63A | ≤ 0.5
43 | A15C C27U C31A C55U G68A | ≤ 0.5
44 | A37G C55U C60G | ≤ 0.5
45 | U2C C29A C34A G56A | ≤ 0.5
46 | C11A C66A | ≤ 0.5
47 | C4G A15U C33A G52C G67A | ≤ 0.5
48 | C11U G39C | 0.68

Row | Variant | yeast fitness
49 | C4U G6A U8G U26C U28A A65U | ≤ 0.5
50 | A42C U47C G58C | 0.644
51 | C22U G39A C49G | ≤ 0.5
52 | C27U C33U A36U C66A | ≤ 0.5
53 | G17C U19A G50A | ≤ 0.5
54 | U16C C27U C29A A40G A43C | ≤ 0.5
55 | C27U G38A C66G | ≤ 0.5
56 | G6C A37G A40U A45C | 0.702
57 | C24A A43U A57G | ≤ 0.5
58 | C5G U28A C55G | ≤ 0.5
59 | G6C C34U G52C C66G | ≤ 0.5
60 | U7C A14G A37U G63A | ≤ 0.5
61 | A14U A21U U32G A37G A45G | ≤ 0.5
62 | U3G U8C G9U C30U G58C G63C | ≤ 0.5
63 | U2A C11G A36G G39C | ≤ 0.5
64 | U28C C33G G38A U64G | ≤ 0.5
65 | U2A U13G A40C G41C C60G C66G A69G | ≤ 0.5
66 | A15C U26A G48C U59C | ≤ 0.5
67 | G18A C29U U35A A70U | ≤ 0.5
68 | G9C U16G C29G U35C A40G | ≤ 0.5
69 | C22U G44A C46G G51A C66G | ≤ 0.5
70 | U7C A36C G63U | ≤ 0.5
71 | G18A A21C G23U U32A A42U G48C U64A | 0.529
72 | A57C C60U G67C | ≤ 0.5

Row | Variant | yeast fitness
73 | G25C A37U G63A | ≤ 0.5
74 | C24A A65U | 0.549
75 | U16A C61G G63C | ≤ 0.5
76 | U28C G39C G44C C46U | ≤ 0.5
77 | G6A A15G A42G C60G A70U | ≤ 0.5
78 | U16C C24U A57U C61U | ≤ 0.5
79 | G10C A20U A57U | ≤ 0.5
80 | G10C U26A C33U G67A | ≤ 0.5
81 | G9C U13C C27U C46G | ≤ 0.5
82 | U13C A20C | 0.903
83 | G12A G18A C49A A65U | ≤ 0.5
84 | G10C C24A G51A A65G A70C | 0.55
85 | U8C C11G A15U A20G A21G | ≤ 0.5
86 | C5U G12C U32A U35A U54C | ≤ 0.5
87 | U26C C30U G51A C55U | ≤ 0.5
88 | A21U G48C C61G C62A C66U | ≤ 0.5
89 | A15G C31G U35C A43C | 0.586
90 | C4A A15U U53C A57C A70C | ≤ 0.5
91 | A42C G51A A70C | 0.578
92 | C22A C24A U26C G68A | ≤ 0.5
93 | G23A C27U G52C A65U G67C | ≤ 0.5
94 | A37U C61A G67A | ≤ 0.5
95 | U8G A20G A36U A45U C46A G68A | ≤ 0.5
96 | C22A A37U C62G G63A | ≤ 0.5

Row | Variant | yeast fitness
97 | G17A A21C C30A A40G A45G | ≤ 0.5
98 | G10C G44U | 0.587
99 | C5U G23A C31U | ≤ 0.5
100 | C4A G25C U26C G50A U54G | ≤ 0.5
101 | A37C A43C C66A | ≤ 0.5
102 | G6C G18C A21G A40U C49U | ≤ 0.5
103 | U2G C5G C11G | ≤ 0.5
104 | C5A U26A A40G | ≤ 0.5
105 | U13G G25A U59C | 0.681
106 | C4U G10C G48C | ≤ 0.5
107 | A37U G38A | 0.631
108 | A43U C46G U54A | 0.538
109 | C4U U16G C66G | ≤ 0.5
110 | G10C C30G A65C G68C | ≤ 0.5
111 | A36C U47A G48C A57C A65U | ≤ 0.5
112 | G10A C29U C30G C34A C49G | ≤ 0.5
113 | C4A C5U C24G | ≤ 0.5
114 | C27G G48C A65C | ≤ 0.5
115 | G10A C24U C29U C30G U53C | ≤ 0.5
116 | C4A A21U A37C A45U G58A | ≤ 0.5
117 | C5A U35G G41A A43C G56A A70C | ≤ 0.5
118 | C4G G39A A57U G67C | ≤ 0.5
119 | C29G G68C A70U | ≤ 0.5
120 | U2C C49U C60G | ≤ 0.5

Row | Variant | yeast fitness
121 | C5A U35C G68U | ≤ 0.5
122 | G41C C49A G67A | ≤ 0.5
123 | A15G A57U G68U | ≤ 0.5
124 | C24G U26A G41C A69C | ≤ 0.5
125 | C5U C24A G39C A70C | ≤ 0.5
126 | A15G U35C A45G C49G G56A A65C | ≤ 0.5
127 | A40G G56A | 0.998
128 | U32C A37U U54A | ≤ 0.5
129 | U7A A20C U28C A36G G58C | ≤ 0.5
130 | C24G A43G C49U C55G A57G | ≤ 0.5
131 | C5U G6C C11A C31G A36C C60G | ≤ 0.5
132 | U2G C11U A21U | ≤ 0.5
133 | C27G U54A | 0.544
134 | U2G C24G C29G C31G U64C | ≤ 0.5
135 | C29G U47G G63A | ≤ 0.5
136 | A21C G23C G51A G52C A65C | ≤ 0.5
137 | C4A G6A U54A U59G A65C | ≤ 0.5
138 | G9A G17A A43G A45G C62G | ≤ 0.5
139 | U2G C24A C29U G67U | ≤ 0.5
140 | C4G A20C U32A C34G A37U | ≤ 0.5
141 | U3C C11G G51C G52A U59G | ≤ 0.5
142 | C24U G52A A70U | ≤ 0.5
143 | C33G C49A A69U | ≤ 0.5
144 | G10C A14U U19A C22U C62A | ≤ 0.5

Row | Variant | yeast fitness
145 | U19A C24A G48C U54G C55U C66U | ≤ 0.5
146 | C22G C31A C34U A43U | ≤ 0.5
147 | C22U C27A C31G G44C C62U | ≤ 0.5
148 | C11G C27U C33G G52A | ≤ 0.5
149 | C4A C31A U32C U53C C60G | ≤ 0.5
150 | U3C G41A G52C C61U C62U | ≤ 0.5
151 | U19G A37G A65U A69U | ≤ 0.5
152 | C29A G39C U54C C60G | ≤ 0.5
153 | U54A G68C | ≤ 0.5
154 | A20G C29G A65U | ≤ 0.5
155 | C27U C29G A42C A43G A57C | ≤ 0.5
156 | C5U G48A C55U | 0.558
157 | G56C C60A | 0.587
158 | U7G C11G C34U G41A A65C C66U | ≤ 0.5
159 | C31G U54G | 0.6
160 | C30A G38A C55A A65C A69U | ≤ 0.5
161 | C60A G67C A69U | ≤ 0.5
162 | C5G A37G C46G A57C | ≤ 0.5
163 | G17A U19A A21C G44C C61A G67A | ≤ 0.5
164 | U8A U26A A43C | ≤ 0.5
165 | C5U G17C A21U A40G U47G G48C | ≤ 0.5
166 | G9A C22G U35C | ≤ 0.5
167 | U2A U13G A40C G41C A57G G63C A65U | ≤ 0.5
